Measurements published in PubChem BioAssay AID1508600 (Functional Genomics Laboratory (NCATS/FGL), 2020).
Screen size: about 53,000 sequences; about 3,700 (7%) were called active.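 Rule for the calls: active = gene knockdowns whose robust z-score for IL-1 alpha signal is at least 2 or at most -2, so actives lie on both sides; inactive = the rest.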 The list shows a part of the results.

Assay: Components of the Cytosolic LPS Sensing Pathway: Gene Identification via Genome-wide siRNA Screen;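 note: robust z of the log signal after scaling to non-targeting control siRNA wells of the plate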
Settings: RAW264.7 macrophages, IL-1a HTRF, actives lie on both sides, screened at 100 nM (by protocol), cells primed 5 h with Pam3CSK4 first
Method in brief: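 Using IL-1a HTRF as read-out, the screen measured release from RAW264.7 cells after 48h siRNA knockdown (100 nM), 5 h Pam3CSK4 priming and 24 h cytosolic LipidA. Values were expressed relative to negative-control wells as robust z-scores.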

Row | Sequence | z-score
1 | GCAUCAAUUCCCAAACCUUTT against Selenov | inactive: -0.0263
2 | GGAGUAUCUGCGUUAUCUUTT against Tsnaxip1 | inactive: 0.0053
3 | GGAUCAAAUUCUACCUUAGTT against Tbc1d5 | inactive: -0.595
4 | GGAAAACUAUGCAGGCAUCTT against Capn2 | inactive: 0.117
5 | CCAUCAUGAACACUCAACATT against Olfr462 | active: -2.59
6 | GGUGUUAGGGCUCAAAUAUTT against Glce | inactive: 1.17
7 | GCUAAUCGGAUGCUGAAGCTT against Psmb7 | inactive: 0.71
8 | CCUGGCACUCAUAGUAUACTT against Tm6sf2 | active: -2.33
9 | GGCCAUAGUCCUGUUCACCTT against Nr2f2 | inactive: 0.492
10 | GGACAGAUCUUUGAAGCAGTT against Vps18 | inactive: -1.7
11 | GGAGAACAGUAACAUUUUUTT against Pcdh7 | inactive: 0.673
12 | GGGCCUUCAGAAGAACAUGTT against Ganab | inactive: -1.56
13 | CCUUGGAGUGAAGGAUCGCTT against Cited1 | inactive: 0.608
14 | CCCUUAGGAAUUGAAUAUGTT against Cspp1 | inactive: 0.509
15 | GGACAGUCUGCUCAUCGACTT against Ripor1 | inactive: -0.6
16 | GGAGACAUUGUCCUCUACATT against Car14 | inactive: -0.722
17 | CGGAUUUUAAAAGGUCACGTT against Vti1a | inactive: -0.816
18 | GGCGGAGAAUCACCUCACATT against Tgfbrap1 | inactive: -1.51
19 | GGUAACUUCAUGUGCAGCATT against Ldlrad3 | inactive: -1.71
20 | GCCUUUCUUCUAUUCACUATT against Degs2 | inactive: -1.71
21 | GGUCAAGUGUCUGAACAACTT against Fkbp8 | inactive: 0.875
22 | GGAGACAUUCCAAAUGAGATT against Zfp688 | inactive: 1.01
23 | GGUCAAGUCAGCAUUCCUGTT against Hspbp1 | inactive: -1.78

Row | Sequence | z-score
24 | GGAAACCGUUUUUUUUUUCTT against Appbp2 | active: 2.16
25 | CCAUAUCCCUGUGGAAAAGTT against Manf | inactive: -0.322
26 | GUUUCCUCAAUGUCUCAGUTT against Olfr1461 | inactive: 0.672
27 | GGAGCUGAAUGUGUUUCGGTT against Best2 | inactive: -0.805
28 | GGGUGCUCUGGACAUGUUGTT against Dcxr | inactive: -0.166
29 | GGCCCAGAUAAAUAACAUGTT against Kpna1 | inactive: 0.468
30 | GGUGCAACCAGUGUGUGAUTT against St6galnac6 | active: 4.22
31 | GCAUCUACUCCCUAUAGACTT against Nin | inactive: 0.322
32 | GGAGACUUAUAACAUGUUUTT against Habp2 | active: 2.19
33 | GGAUUUGAGUUGAAGCGUGTT against Zscan20 | inactive: -0.129
34 | GGAAGUAAAAUUUGACAUGTT against Il1a | inactive: -1.42
35 | GCCCUAUAUAUCAUUCUAGTT against Rhoa | inactive: 1.12
36 | UUCUACUGGGCUUAACCAGTT against Olfr1032 | inactive: 1.86
37 | CCAAUGGUGUGGUCUGUAATT against Olfr572 | inactive: -1.7
38 | GGUCUUCACUGUCGACUACTT against Cpne7 | inactive: 0.643
39 | GCCUGGAAUCUCUUCAUGUTT against Pde3a | inactive: 0.679
40 | GGACAUUUUAGUUGUCUUGTT against Slc38a4 | inactive: -0.607
41 | GGAGAUCAUUGAAUACUACTT against Sec14l1 | inactive: 0.811
42 | CCUGCUAGAGCCAUUAUUGTT against Memo1 | inactive: -1.61
43 | GCUUUAGAACAGAGGGUUATT against Scd4 | inactive: 0.989
44 | GCCGUCCAACACUUGAUUGTT against Rttn | inactive: 0.509
45 | CGGCUCGUAGUUUAUUAAATT against Ccnk | inactive: -0.411
46 | GGCCUAAUUCCACCUUUGCTT against Etv4 | inactive: 0.0765

Row | Sequence | z-score
47 | GCAGAUACUAGAGUUGUUUTT against Tent2 | inactive: -0.0277
48 | CGUAAACAUUUCCUUCUACTT against Dmbt1 | inactive: -0.718
49 | GGUUUCUGUGCAUUAGGAATT against Slc35e3 | inactive: 1.96
50 | CCUUUGACGGCCAUGAGUATT against Muc6 | inactive: -1.39
51 | GGCAGAGAAGGAGAAACAGTT against Hmg20b | inactive: -0.35
52 | GAACUGGGCCUAGAACUUGTT against Aspdh | inactive: -0.481
53 | CGGUUUCUUACCAGCAAUUTT against Mgmt | inactive: -0.237
54 | CGACUUUGGAGAAUUUCAATT against Synrg | inactive: -0.573
55 | CGACACCAUUCAGAUUGAUTT against Rps4x | inactive: -0.119
56 | GGCAGCAAGGAAACUAUUATT against Kpna3 | inactive: 1.39
57 | GGCUCUGUGGCAAUCUUGUTT against Olfr1225 | inactive: -1.07
58 | CCAUGACUACCUGCCUCUGTT against Vwa5b2 | inactive: 0.144
59 | GGAUAAUUUUGGAAGCAGATT against Rheb | inactive: -0.299
60 | GGACACUAUCCCAUUUCUATT against Slc7a15 | inactive: -0.368
61 | GCCAUACCUUCAACUGUCGTT against Ncoa2 | active: -2.42
62 | CCAAGGACGGCCUUACACUTT against Spout1 | inactive: 0.356
63 | GGUGUUUGAUAAUGAAGAGTT against Dnah1 | inactive: -0.214
64 | CCGAAGUGGACGAAUACUUTT against Csrnp3 | inactive: 0.207
65 | GGAGGUCAUCAACGUGCUATT against Nucb1 | inactive: -0.339
66 | GGUGAGCUGAAAUGAGGUGTT against H2-DMb1 | inactive: 0.571
67 | GGAGAUAAAGGCUCUCUUCTT against Tmem234 | inactive: 1.61
68 | GGAAGAUAGGAGCUACAAATT against Mr1 | inactive: -0.553

Looked up one by one from the entries so far, 3 records:
Row | Sequence | z-score
61 | GCCAUACCUUCAACUGUCGTT against Ncoa2 | active: -2.42
56 | GGCAGCAAGGAAACUAUUATT against Kpna3 | inactive: 1.39
48 | CGUAAACAUUUCCUUCUACTT against Dmbt1 | inactive: -0.718

Shown comma-delimited: part of the list above.
Row,Sequence,z-score
55,CGACACCAUUCAGAUUGAUTT against Rps4x,inactive: -0.119
56,GGCAGCAAGGAAACUAUUATT against Kpna3,inactive: 1.39
